From PubChem BioAssay AID540276 (National Center for Advancing Translational Sciences (NCATS), 2011)
The campaign covered roughly 300,000 compounds. About 5,400 (1.8%) were called active. The inconclusive results got no clear call from the source; some entries with a clear call stand among them for comparison. Calls come from the whole dose curve; tested in HEK293 cells. Where the call is inconclusive, the potency comes from a doubtful curve fit.

Assay: qHTS for inhibitors of binding or entry into cells for Marburg Virus
Details: Marburg virus pseudotyped entry inhibition, cell reporter; series mostly up to 37.8 µM
Potency is the fitted concentration of half-maximal effect.

Structure (SMILES) | Potency
Cc1cc2c(cc1C)NC1(C(=O)Nc3ccccc31)C1=C(CC(C)(C)CC1=O)N2 (stereo not drawn) | inconclusive: 12.6 µM [activator, partial curve, poor fit]
CCOc1ccc(Br)c(C2(O)CC(C)N(C)CC2C)c1 (stereo not drawn) | inconclusive: 22.4 µM [inhibitor, single point]
COc1ccc(-c2[nH]c3c(c2-c2c(-n4cccc4)n(C)c(=O)[nH]c2=O)c(=O)[nH]c(=O)n3C)cc1F | inactive
CC1CCc2c(sc3nc(CN4CCOCC4)nc(Sc4ccccc4)c23)C1 (stereo not drawn) | inconclusive: 35.5 µM [activator, single point]
CN(C)CCCN(C(=O)c1cc(-c2cccs2)nc2ccccc12)c1nc2ccc(F)cc2s1 | inconclusive: 6.31 µM [inhibitor, full curve, poor fit]
Fc1ccc(C(NCCc2ccc(Cl)cc2)c2nnc(-c3ccccc3Cl)o2)cc1 (stereo not drawn) | inconclusive: 35.5 µM [inhibitor, single point]
Cc1cccc(-c2nc3cc([N+](=O)[O-])ccc3o2)c1 | inconclusive: 0.562 µM [activator, partial curve, poor fit]
CC1(C)CC(=O)C=C(NC2=CC3OC(c4ccccc4)OCC3OC2=O)C1 (stereo not drawn) | active: 14.1 µM
Cc1nn(Cc2ccccc2Cl)c2sc(C(=O)NC(C)(C)C)cc12 | inconclusive: 35.5 µM [inhibitor, single point]
C/C(=N\NC(=O)C(c1ccncc1)N1CCOCC1)c1ccc(Br)cc1 (stereo not drawn) | inactive
O=Nc1c2cc3ccccc3[nH]c-2c2ccccc12 | inconclusive: 14.1 µM [inhibitor, single point]
CC(OC(=O)c1ccc(S(=O)(=O)NCc2ccco2)cc1)C(=O)Nc1ccc(Cl)cn1 (stereo not drawn) | inconclusive: 0.326 µM [inhibitor, partial curve, poor fit]
COC(=O)c1ccc(Nc2cc(C)nc3ccccc23)cc1 | inconclusive: 7.94 µM [inhibitor, partial curve, poor fit]
CCOc1ccc(NC(=O)CCc2c(C)nc3nc(-c4cc(OC)cc(OC)c4)nn3c2C)cc1 | inactive
COc1ccccc1CNS(=O)(=O)c1c(C)[nH]c(C)c1C(=O)N1CCCC1 | inconclusive: 1 µM [activator, partial curve, poor fit]
Cc1cc(C(=S)N2CCOCC2)c(C)n1-c1ccc(Cl)cc1 | inactive
COc1ccc(N2C(=O)C3C4C=CC(C5CC45)C3C2=O)c([N+](=O)[O-])c1 (stereo not drawn) | inactive
O=C(Nc1ccc(-c2nc3cccnc3s2)cc1)C1CCCO1 (stereo not drawn) | active: 2.59 µM

2 entries picked at random from those above:
Structure (SMILES) | Potency
C/C(=N\NC(=O)C(c1ccncc1)N1CCOCC1)c1ccc(Br)cc1 (stereo not drawn) | inactive
COC(=O)c1ccc(Nc2cc(C)nc3ccccc23)cc1 | inconclusive: 7.94 µM [inhibitor, partial curve, poor fit]
